From the supplement of paper PMC11348887
Counter-ions that a name gives are not always drawn. The list shows a part of the results. Most values lie at the level of the controls, where differences are scatter.

Key:
Conditions in all cases: 5 µM; treatment: days 7-14 after plating, readout day 21
[1] = system: hPSC-derived cortical neurons (WA09); assay: nucleus area z-score vs screen plate; higher = larger nuclei (more mature)
[2] = system: hPSC-derived cortical neurons (WA09); assay: total neurite length per nucleus (MAP2) z-score; higher = more neurite growth
[3] = system: hPSC-derived cortical neurons (WA09); assay: nucleus roundness z-score vs screen plate; higher = rounder nuclei (more mature)
[4] = system: hPSC-derived cortical neurons (WA09); assay: KCl-induced FOS+/EGR-1+ double-positive nuclei fraction z-score (KCl minus unstimulated); higher = stronger activity-induced IEG response

Compound	nucleus area z-score [1]	total neurite length per nucleus (z-score) [2]	nucleus roundness z-score [3]	KCl-induced FOS+/EGR-1+ double-positive nuclei fraction z-score [4]
CN(C)c1cc(NC(=O)CNC(C)(C)C)c(O)c2c1C[C@H]1C[C@H]3[C@H](N(C)C)C(O)=C(C(N)=O)C(=O)[C@@]3(O)C(O)=C1C2=O [Tigecycline]	0.0522	0.295	0.562	1.55
COc1ccc(/C=C/C(=O)Nc2ccccc2C(=O)O)cc1OC [Tranilast]	0.183	-0.266	-0.569	0.56
Cc1cc(C)nc(NS(=O)(=O)c2ccc(NC(=S)NC(=O)COc3ccc(Br)cc3Cl)cc2)n1	-0.0947	0.76	1.6	0.377
CCOc1nc2cccc(C(=O)OCc3oc(=O)oc3C)c2n1Cc1ccc(-c2ccccc2-c2noc(=O)[nH]2)cc1 [Azilsartan Medoxomil]	0.493	1.07	1.88	1.66
COCCCC/C(=N\OCCN)c1ccc(C(F)(F)F)cc1 [Fluvoxamine maleate]	-0.564	0.438	0.346	-0.73
CN(C)CCOC(c1ccccc1)c1ccccc1 [Diphenhydramine HCl]	0.578	-0.305	-0.242	0.0794
Cn1cc(CNCC2CCN(c3ncc(C(=O)NO)cn3)CC2)c2ccccc21	-5.24	-2.59	-2.7	-0.637
C=C1C(=O)[C@]23[C@H](O)[C@H]1CC[C@H]2[C@@]12CO[C@]3(O)[C@@H](O)[C@@H]1C(C)(C)CC[C@@H]2O [Oridonin]	0.0409	-0.618	-0.999	-0.974
CC(=O)O[C@@]12CO[C@@H]1C[C@H](O)[C@@]1(C)C(=O)[C@H](O)C3=C(C)[C@@H](OC(=O)[C@H](O)[C@@H](NC(=O)OC(C)(C)C)c4ccccc4)C[C@@](O)([C@@H](OC(=O)c4ccccc4)[C@H]21)C3(C)C [Docetaxel Trihydrate]	-0.952	2.43	-4	-1.18
O=C1c2c(O)ccc(O)c2C(=O)c2c(NCCNCCO)ccc(NCCNCCO)c21 [Mitoxantrone]	-2.18	-4.2	2.5	-0.377
Cc1cccc(CN2CCN(C(c3ccccc3)c3ccc(Cl)cc3)CC2)c1 (stereo not drawn) [Meclizine 2HCl]	-8	-3.7	-6.24	-2.26
CC(C)(Oc1ccc(CCNC(=O)c2ccc(Cl)cc2)cc1)C(=O)O [Bezafibrate]	0.456	-0.772	0.27	0.00866
C[C@@H]1C[C@H]2[C@@H]3CCC4=CC(=O)C=C[C@]4(C)[C@@]3(F)[C@@H](O)C[C@]2(C)[C@@]1(O)C(=O)COP(=O)(O)O [Dexamethasone Sodium Phosphate]	0.0488	1.39	0.457	-0.159
CCC1(C)CC(=O)NC1=O (stereo not drawn) [Ethosuximide]	0.114	0.849	0.122	0.192
CC(O)c1cc(C(=O)N[C@@H](C)Cn2ccc(-c3ccc(C#N)c(Cl)c3)n2)n[nH]1 (stereo partly drawn)	0.716	0.629	0.741	0.0968
CCCCN1CCCCC1C(=O)Nc1c(C)cccc1C (stereo not drawn) [Bupivacaine HCl]	1.1	0.589	0.277	2.16
Clc1ccc(Nc2nnc(Cc3ccncc3)c3ccccc23)cc1 [Vatalanib (PTK787) 2HCl]	0.0506	-0.0301	0.0106	0.339
Cc1c(-c2ccccc2)oc2c(C(=O)OCCN3CCCCC3)cccc2c1=O [Flavoxate HCl]	-0.585	-0.754	-0.21	-1.23
CC[C@H](CO)Nc1nc(NCc2ccccc2)c2ncn(C(C)C)c2n1 [Roscovitine (Seliciclib_CYC202)]	-0.543	0.576	0.366	0.233
O=C1NC(=O)C(c2ccccc2)(c2ccccc2)N1 [Phenytoin]	0.269	0.507	-0.481	1.04
CCc1c(Cl)c(O)c(Cl)c(O)c1C(=O)O[C@H]1[C@H](O)[C@H](OC)[C@H](OC/C2=C\C=C\C[C@H](O)/C(C)=C/[C@H](CC)[C@@H](O[C@@H]3OC(C)(C)[C@@H](OC(=O)C(C)C)[C@H](O)[C@@H]3O)/C(C)=C/C(C)=C/C[C@@H]([C@@H](C)O)OC2=O)O[C@@H]1C [Fidaxomicin]	0.76	-1.28	-0.524	0.24
OC1(c2ccc(Cl)c(C(F)(F)F)c2)CCN(CCCC(c2ccc(F)cc2)c2ccc(F)cc2)CC1 [Penfluridol]	-14.8	-4.78	-8.13	-0.313
O=C(c1ccc(F)cc1)C1CCN(CCn2c(=O)[nH]c3ccccc3c2=O)CC1 [Ketanserin]	-0.159	-0.25	0.426	0.224
Cc1ccc(S(=O)(=O)OCC(=O)Nc2ccc(C(=O)O)c(O)c2)cc1	0.175	0.186	-0.235	0.168
CN(C)C(=O)[C@H](O)[C@H](Cc1ccccc1)NC(=O)c1cc2cc(Cl)ccc2[nH]1	1.26	1.37	1.89	1.32
O=C(O)CCCc1c[nH]c2ccccc12 [3-Indolebutyric acid (IBA)]	-0.743	0.4	1.02	0.911
O=C(/C=C/c1ccc(O)cc1)c1ccc(O)cc1O [Isoliquiritigenin]	1.22	-0.638	0.574	0.17

2 records drawn at random from those above:
Compound	nucleus area z-score [1]	total neurite length per nucleus (z-score) [2]	nucleus roundness z-score [3]	KCl-induced FOS+/EGR-1+ double-positive nuclei fraction z-score [4]
COCCCC/C(=N\OCCN)c1ccc(C(F)(F)F)cc1 [Fluvoxamine maleate]	-0.564	0.438	0.346	-0.73
COc1ccc(/C=C/C(=O)Nc2ccccc2C(=O)O)cc1OC [Tranilast]	0.183	-0.266	-0.569	0.56
